These results are taken from paper PMC11764150 (2025).

Assay [1] has as its system MET Apt-AuNP (biotin-ended MET aptamer) (DNA, aptamer) AGGAATTCAGATCTCCCTGCAGAAAACAGACCACCCACTTTGAATCCACTTGACTCGAGGAGCTCAGGATCCCG
The assay can be described thus: competitive lateral flow assay.

For assay [2], the system named is COC Apt-AuNP (biotin-ended COC aptamer) (DNA, aptamer) AGGAATTCAGATCTCCCTGCAGTTCGAGGAAGAATAGACCTGCCTTCTAATAGCTCGAGGAGCTCAGGATCCCG
The assay can be described thus: competitive lateral flow assay.

For the compound `CN1CC[C@]23c4c5ccc(O)c4O[C@H]2[C@@H](O)C=C[C@H]3[C@H]1C5`, the binding result in assay [1] and in assay [2] was “no” throughout.
